Measurements reported in PubChem BioAssay AID2685 (National Center for Advancing Translational Sciences (NCATS), 2010).
The other results are listed elsewhere or left out. These are further read-outs of the screen, such as a control signal, another cell line or another target. No call is given for them. Most of these compounds were active or inconclusive in the main read-out, so they are no random draw. Potencies come from curve fits of mixed quality, noted in brackets.

Assay: qHTS Assay for Lipid Storage Modulators in Drosophila S3 Cells;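 as to cell number change: cells counted by Cell Tracker Red CMTPX staining in the red channel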
Conditions: BODIPY lipid droplet fluorescence, 18-24 h; for cell number change: measured here: cell count max response, cells fed with added oleic acid
In short: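 Drosophila S3 cells loaded with oleic acid (400 uM, as added) and compounds at several concentrations; lipid droplets imaged by 488-nm laser-scanning cytometry, 500–530 nm intensity and object ratio to cell channel. Percent activity normalized to 20 uM Triacsin C.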

[1] = measured here: cell number channel AC50, cells fed with added oleic acid
[2] = measured here: lipid fluorescence (Fed channel) AC50, cells fed with added oleic acid

SMILES	cell number change [%]	AC50 [1]	AC50 [2]
CC1(C2(O)CC(c3ccccc3)ON2)CCCCC1 (stereo not given)	-74.3	4.11 µM [falling, full curve]	20.6 µM [falling, single point]
CC1CC2(C)Oc3ccccc3C3OCC1(CO)C(C)C32 (stereo not given)	-42.9	29.1 µM [falling, single point]	25.9 µM [falling, single point]
COC(=O)C(C)C1Sc2ccccc2NC1=O (stereo not given)	–	4.61 µM [falling, single point]	–
Cc1cc(C)c(S(=O)(=O)c2ccccc2)c(OC(=O)c2c(F)cccc2F)n1	-38.5	14.6 µM [falling, single point]	–
CC(C(=O)N1CCc2ccccc21)N1CCN(S(=O)(=O)c2cccs2)CC1 (stereo not given)	-25.3	–	29.1 µM [falling, single point]
CCC(C(=O)Nc1nnc(-c2ccco2)s1)c1ccccc1 (stereo not given)	-35.4	29.1 µM [falling, single point]	–
C/C(=N\NC(=O)c1nnn(-c2nonc2N)c1CN1CCC(C)CC1)c1cccc(Br)c1	-17.9	–	0.58 µM [rising, single point]
O=C(NC1CCCc2ccccc21)N[C@@H](Cc1ccccc1)C(=O)O (stereo not given in full)	-4.17	–	–
Cc1ccc(C)c(NC(=S)N2CCN(S(C)(=O)=O)CC2)c1	-3.18	–	20.6 µM [rising, single point]
COc1ccc(CCNc2oc(Cc3ccccc3)nc2C#N)cc1OC	-3.32	–	2.59 µM [rising, partial curve]
O=S(=O)([N-]c1nc2ccccc2nc1-[n+]1ccc(Cc2ccccc2)cc1)c1ccc(Br)s1	-6.47	–	0.13 µM [falling, full curve, poor fit]
CCC(=O)N1CCCc2cc(S(=O)(=O)N3CCN(c4ncccn4)CC3)ccc21	37.2	16.4 µM [rising, single point]	16.4 µM [rising, single point]
O=C(COc1ccccc1)NNC(=O)c1cccs1	9.27	–	20.6 µM [rising, partial curve, poor fit]
Cc1ccc(OCCN2C(=O)c3ccccc3C2=O)c([N+](=O)[O-])c1	65.2	0.366 µM [rising, full curve, poor fit]	2.31 µM [rising, partial curve, poor fit]
Cc1ccc(S(=O)(=O)NCCCCCC(N)=O)cc1	-6.38	–	1.3 µM [falling, full curve, poor fit]
COc1ccc2nc(SC(C)C(=O)NC3CCCC3)[nH]c2c1 (stereo not given)	-88	18.4 µM [falling, partial curve]	0.92 µM [rising, full curve]

Sorted by count of non-hydrogen atoms (rising): some entries from above.
SMILES	cell number change [%]	AC50 [1]	AC50 [2]
COC(=O)C(C)C1Sc2ccccc2NC1=O (stereo not given)	–	4.61 µM [falling, single point]	–
COc1ccc2nc(SC(C)C(=O)NC3CCCC3)[nH]c2c1 (stereo not given)	-88	18.4 µM [falling, partial curve]	0.92 µM [rising, full curve]
O=C(NC1CCCc2ccccc21)N[C@@H](Cc1ccccc1)C(=O)O (stereo not given in full)	-4.17	–	–
